Assay results taken from the supplement of paper PMC7666118.
Some of the results follow.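 Rule for the calls: active = dose-dependent thermal stabilisation significant by F-test of dose-response against flat model at 10% FDR; inactive = not significant.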

The chains behind the UniProt entries cited, without tags or fusion partners. Where a name states a change or a piece, a line headed by the entry shows the natural chain unless it says otherwise.
UniProt Q8NDT2: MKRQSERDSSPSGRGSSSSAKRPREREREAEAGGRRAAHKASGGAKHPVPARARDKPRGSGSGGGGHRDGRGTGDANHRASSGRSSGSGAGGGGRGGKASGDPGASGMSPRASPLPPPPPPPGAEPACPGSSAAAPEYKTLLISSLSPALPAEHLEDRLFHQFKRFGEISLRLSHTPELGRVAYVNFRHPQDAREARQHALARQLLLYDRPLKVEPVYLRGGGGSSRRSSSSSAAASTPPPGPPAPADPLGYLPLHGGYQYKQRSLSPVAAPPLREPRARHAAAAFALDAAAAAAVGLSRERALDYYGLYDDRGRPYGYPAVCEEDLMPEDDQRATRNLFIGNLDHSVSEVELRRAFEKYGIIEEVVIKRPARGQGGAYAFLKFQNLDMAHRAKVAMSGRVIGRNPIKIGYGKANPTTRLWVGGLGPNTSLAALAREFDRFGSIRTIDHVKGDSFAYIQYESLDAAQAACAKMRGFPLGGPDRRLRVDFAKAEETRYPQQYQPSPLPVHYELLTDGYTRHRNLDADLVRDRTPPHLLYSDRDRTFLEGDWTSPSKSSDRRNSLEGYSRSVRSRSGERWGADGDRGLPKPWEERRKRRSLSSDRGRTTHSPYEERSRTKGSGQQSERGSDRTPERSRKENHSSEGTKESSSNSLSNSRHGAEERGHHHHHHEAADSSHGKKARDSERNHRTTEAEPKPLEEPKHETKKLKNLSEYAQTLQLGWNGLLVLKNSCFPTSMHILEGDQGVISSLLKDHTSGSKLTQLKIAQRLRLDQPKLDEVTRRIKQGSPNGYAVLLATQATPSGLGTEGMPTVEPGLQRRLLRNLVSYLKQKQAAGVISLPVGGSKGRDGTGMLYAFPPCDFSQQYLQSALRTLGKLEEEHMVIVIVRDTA
UniProt Q9UJ41, whole entry: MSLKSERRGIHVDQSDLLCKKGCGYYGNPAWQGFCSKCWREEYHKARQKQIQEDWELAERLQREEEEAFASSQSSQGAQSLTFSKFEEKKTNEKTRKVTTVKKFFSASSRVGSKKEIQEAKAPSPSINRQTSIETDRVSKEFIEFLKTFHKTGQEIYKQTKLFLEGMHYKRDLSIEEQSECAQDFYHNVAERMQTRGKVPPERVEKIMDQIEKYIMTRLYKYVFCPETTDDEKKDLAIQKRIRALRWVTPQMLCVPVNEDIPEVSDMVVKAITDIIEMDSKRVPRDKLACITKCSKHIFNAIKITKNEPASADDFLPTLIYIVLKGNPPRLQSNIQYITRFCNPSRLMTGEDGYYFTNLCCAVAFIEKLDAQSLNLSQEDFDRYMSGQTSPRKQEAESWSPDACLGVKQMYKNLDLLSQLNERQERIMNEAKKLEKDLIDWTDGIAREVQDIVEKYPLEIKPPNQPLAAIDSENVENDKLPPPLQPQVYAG
UniProt Q9H1K0: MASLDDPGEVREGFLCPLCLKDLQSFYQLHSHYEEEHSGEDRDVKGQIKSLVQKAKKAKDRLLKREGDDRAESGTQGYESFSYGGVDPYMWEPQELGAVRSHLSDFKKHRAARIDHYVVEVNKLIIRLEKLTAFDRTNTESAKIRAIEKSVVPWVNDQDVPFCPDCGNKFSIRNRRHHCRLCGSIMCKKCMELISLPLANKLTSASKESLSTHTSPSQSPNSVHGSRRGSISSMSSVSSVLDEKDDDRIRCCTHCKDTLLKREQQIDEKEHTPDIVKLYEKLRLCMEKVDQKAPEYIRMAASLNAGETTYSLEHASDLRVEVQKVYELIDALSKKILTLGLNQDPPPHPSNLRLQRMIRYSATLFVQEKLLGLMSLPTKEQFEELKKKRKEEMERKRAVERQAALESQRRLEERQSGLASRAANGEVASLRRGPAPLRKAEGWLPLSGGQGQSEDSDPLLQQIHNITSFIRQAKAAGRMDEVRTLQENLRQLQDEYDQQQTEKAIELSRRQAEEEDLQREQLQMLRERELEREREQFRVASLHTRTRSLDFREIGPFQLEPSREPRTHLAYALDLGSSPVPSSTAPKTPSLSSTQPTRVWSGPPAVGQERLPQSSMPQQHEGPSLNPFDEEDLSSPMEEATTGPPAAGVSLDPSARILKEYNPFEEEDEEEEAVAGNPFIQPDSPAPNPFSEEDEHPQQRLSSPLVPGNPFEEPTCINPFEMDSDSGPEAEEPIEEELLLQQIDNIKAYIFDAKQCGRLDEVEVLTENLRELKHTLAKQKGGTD
UniProt Q96EV2: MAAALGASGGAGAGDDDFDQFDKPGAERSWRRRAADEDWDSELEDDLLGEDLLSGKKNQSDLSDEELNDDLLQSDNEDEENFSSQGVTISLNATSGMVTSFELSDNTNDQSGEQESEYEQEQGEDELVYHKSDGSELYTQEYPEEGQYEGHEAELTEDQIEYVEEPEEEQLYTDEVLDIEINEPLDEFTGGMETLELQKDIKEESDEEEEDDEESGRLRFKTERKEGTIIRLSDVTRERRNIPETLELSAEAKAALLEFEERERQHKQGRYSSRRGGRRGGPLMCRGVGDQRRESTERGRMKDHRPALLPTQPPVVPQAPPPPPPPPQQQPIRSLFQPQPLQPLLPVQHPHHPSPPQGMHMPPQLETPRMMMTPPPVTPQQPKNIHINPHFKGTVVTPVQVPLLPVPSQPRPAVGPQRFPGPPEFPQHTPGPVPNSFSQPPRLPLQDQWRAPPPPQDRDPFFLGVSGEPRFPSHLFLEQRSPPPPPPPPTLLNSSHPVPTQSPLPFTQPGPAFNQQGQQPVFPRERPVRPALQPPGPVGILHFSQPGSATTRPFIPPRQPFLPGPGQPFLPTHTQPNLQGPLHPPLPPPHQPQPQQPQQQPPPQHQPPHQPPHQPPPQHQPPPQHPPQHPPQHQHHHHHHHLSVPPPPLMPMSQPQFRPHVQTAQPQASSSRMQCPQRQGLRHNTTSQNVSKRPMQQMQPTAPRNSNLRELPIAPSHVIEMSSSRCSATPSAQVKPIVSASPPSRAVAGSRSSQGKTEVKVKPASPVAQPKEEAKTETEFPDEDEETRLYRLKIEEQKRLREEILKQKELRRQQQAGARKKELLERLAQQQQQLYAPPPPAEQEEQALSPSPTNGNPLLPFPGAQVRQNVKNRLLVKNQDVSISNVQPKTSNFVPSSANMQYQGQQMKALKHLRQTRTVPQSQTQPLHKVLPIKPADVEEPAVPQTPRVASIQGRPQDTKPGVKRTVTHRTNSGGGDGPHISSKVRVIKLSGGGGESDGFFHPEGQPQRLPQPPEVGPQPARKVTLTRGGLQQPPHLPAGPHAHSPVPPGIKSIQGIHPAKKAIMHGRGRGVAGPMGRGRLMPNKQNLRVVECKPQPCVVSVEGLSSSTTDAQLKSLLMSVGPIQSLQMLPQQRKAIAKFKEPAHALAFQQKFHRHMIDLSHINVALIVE
UniProt P52306: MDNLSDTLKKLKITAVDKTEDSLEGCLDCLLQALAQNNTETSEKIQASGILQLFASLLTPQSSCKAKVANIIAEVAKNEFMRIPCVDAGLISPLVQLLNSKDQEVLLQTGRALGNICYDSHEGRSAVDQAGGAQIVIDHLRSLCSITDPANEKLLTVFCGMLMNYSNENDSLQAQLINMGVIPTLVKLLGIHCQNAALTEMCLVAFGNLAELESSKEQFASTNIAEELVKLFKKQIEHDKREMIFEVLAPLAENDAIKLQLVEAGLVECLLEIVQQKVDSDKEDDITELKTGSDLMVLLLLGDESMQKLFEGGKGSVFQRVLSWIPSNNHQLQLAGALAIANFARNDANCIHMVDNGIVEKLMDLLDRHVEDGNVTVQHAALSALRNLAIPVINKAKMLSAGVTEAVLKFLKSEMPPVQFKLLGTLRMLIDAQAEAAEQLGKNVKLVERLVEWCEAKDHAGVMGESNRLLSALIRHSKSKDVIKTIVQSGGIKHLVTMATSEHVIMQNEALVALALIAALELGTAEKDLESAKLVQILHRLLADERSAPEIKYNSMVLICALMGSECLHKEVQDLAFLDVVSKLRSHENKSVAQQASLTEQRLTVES
UniProt Q96T37: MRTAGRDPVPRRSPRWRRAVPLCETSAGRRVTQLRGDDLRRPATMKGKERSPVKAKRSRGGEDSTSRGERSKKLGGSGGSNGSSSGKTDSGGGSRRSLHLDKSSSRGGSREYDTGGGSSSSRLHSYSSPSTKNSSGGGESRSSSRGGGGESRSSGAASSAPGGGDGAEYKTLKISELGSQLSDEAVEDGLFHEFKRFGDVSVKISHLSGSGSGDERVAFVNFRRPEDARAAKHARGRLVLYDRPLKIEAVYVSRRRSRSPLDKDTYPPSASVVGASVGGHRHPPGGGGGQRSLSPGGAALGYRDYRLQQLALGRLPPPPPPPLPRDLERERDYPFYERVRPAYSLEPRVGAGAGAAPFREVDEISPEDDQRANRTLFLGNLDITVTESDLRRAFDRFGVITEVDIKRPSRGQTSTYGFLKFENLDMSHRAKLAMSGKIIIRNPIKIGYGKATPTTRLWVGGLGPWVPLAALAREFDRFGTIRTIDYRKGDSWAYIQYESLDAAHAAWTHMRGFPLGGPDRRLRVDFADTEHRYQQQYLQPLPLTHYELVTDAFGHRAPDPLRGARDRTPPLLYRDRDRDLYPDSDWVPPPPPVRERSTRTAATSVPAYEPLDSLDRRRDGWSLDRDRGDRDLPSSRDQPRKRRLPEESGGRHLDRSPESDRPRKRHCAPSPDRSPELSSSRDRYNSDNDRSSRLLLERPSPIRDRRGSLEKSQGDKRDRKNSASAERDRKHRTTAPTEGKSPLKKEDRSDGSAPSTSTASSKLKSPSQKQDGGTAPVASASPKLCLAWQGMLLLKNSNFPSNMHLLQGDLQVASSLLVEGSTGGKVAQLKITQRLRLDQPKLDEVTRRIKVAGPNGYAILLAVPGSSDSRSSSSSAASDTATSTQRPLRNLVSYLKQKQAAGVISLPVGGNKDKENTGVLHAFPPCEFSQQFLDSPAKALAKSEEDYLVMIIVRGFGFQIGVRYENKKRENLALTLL
UniProt P78332: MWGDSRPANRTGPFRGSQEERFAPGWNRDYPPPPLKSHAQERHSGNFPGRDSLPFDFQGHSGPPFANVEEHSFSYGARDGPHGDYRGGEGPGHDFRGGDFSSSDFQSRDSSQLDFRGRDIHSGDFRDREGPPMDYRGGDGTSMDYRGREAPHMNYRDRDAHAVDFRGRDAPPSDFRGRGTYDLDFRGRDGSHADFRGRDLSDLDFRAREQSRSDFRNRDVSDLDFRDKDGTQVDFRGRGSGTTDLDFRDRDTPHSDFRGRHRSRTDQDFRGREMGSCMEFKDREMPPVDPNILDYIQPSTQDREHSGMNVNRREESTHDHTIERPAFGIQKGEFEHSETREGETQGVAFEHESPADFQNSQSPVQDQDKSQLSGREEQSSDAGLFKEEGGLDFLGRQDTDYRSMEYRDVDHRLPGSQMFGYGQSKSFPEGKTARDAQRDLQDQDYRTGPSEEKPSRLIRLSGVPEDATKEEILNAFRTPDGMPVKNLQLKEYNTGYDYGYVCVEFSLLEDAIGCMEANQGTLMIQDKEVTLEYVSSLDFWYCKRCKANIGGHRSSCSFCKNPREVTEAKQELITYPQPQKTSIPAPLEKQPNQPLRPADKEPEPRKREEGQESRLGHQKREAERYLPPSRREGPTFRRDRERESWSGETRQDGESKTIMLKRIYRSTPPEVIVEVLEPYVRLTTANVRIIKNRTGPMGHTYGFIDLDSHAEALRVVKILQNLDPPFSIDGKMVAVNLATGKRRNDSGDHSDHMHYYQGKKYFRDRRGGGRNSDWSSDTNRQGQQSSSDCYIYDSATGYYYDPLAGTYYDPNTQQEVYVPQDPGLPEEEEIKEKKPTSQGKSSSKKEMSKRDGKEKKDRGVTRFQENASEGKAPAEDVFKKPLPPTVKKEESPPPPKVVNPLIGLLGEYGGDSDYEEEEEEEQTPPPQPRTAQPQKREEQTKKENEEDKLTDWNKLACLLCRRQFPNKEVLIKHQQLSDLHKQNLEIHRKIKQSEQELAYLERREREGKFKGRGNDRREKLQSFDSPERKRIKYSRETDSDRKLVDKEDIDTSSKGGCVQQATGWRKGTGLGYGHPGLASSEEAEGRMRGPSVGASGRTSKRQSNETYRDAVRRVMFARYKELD
UniProt Q9H974: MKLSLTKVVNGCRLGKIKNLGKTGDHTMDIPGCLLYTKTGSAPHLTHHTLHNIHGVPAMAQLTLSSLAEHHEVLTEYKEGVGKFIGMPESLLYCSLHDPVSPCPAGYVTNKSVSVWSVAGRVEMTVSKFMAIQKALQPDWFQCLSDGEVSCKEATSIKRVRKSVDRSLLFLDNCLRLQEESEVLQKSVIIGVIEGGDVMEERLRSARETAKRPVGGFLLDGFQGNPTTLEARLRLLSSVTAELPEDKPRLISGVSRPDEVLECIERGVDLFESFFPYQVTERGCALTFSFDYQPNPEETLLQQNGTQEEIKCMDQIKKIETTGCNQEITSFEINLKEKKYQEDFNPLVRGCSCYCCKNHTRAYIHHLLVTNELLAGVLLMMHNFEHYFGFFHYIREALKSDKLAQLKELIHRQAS

Compound: Nc1nc2c(ncn2[C@@H]2O[C@H](COP(=O)(O)OP(=O)(O)OP(=O)(O)O)[C@@H](O)[C@H]2O)c(=O)[nH]1
Assay: dose-dependent thermal stabilisation call (2D-TPP, DLPTP, 10% FDR) (binary (1 = stabilised)); higher = stabilised by the compound
Details: system: Jurkat gel-filtered lysate; concentration range 1-500 µM

Target | dose-dependent thermal stabilisation call
PTPRE (UniProt P23469) | inactive: 0
RAC3 (UniProt P60763) | inactive: 0
RBM27 (UniProt Q9P2N5) | inactive: 0
RBM22 (UniProt Q9NW64) | inactive: 0
PRPF4B (UniProt Q13523) | active: 1
RAB39B (UniProt Q96DA2) | active: 1
RBM15B (UniProt Q8NDT2) | inactive: 0
RABGEF1 (UniProt Q9UJ41) | inactive: 0
RBSN (UniProt Q9H1K0) | inactive: 0
PURA (UniProt Q00577) | inactive: 0
PUDP (UniProt Q08623) | inactive: 0
PYCR3 (UniProt Q53H96) | inactive: 0
RBL2 (UniProt Q08999) | inactive: 0
RAB8A (UniProt P61006) | active: 1
RBM33 (UniProt Q96EV2) | inactive: 0
RAB5C (UniProt P51148) | active: 1
PRKCB (UniProt P05771) | active: 1
RBM3 (UniProt P98179) | inactive: 0

Target | dose-dependent thermal stabilisation call
PSMG2 (UniProt Q969U7) | inactive: 0
PSMC3IP (UniProt Q9P2W1) | inactive: 0
RAP1GDS1 (UniProt P52306) | inactive: 0
PTAR1 (UniProt Q7Z6K3) | active: 1
PTK2B (UniProt Q14289) | inactive: 0
QDPR (UniProt P09417) | inactive: 0
RCC2 (UniProt Q9P258) | inactive: 0
PRPF31 (UniProt Q8WWY3) | active: 1
RAB3D (UniProt O95716) | active: 1
RBM17 (UniProt Q96I25) | inactive: 0
RBM15 (UniProt Q96T37) | inactive: 0
PSMF1 (UniProt Q92530) | inactive: 0
RCHY1 (UniProt Q96PM5) | inactive: 0
RBM6 (UniProt P78332) | inactive: 0
QTRT2 (UniProt Q9H974) | inactive: 0
RB1CC1 (UniProt Q8TDY2) | inactive: 0
PROSC (UniProt O94903) | inactive: 0
PTPN23 (UniProt Q9H3S7) | inactive: 0

As entered above.
QTRT2 (UniProt Q9H974) | dose-dependent thermal stabilisation call: inactive: 0
PURA (UniProt Q00577) | dose-dependent thermal stabilisation call: inactive: 0
